Our source for the binding values is publication PMC12858346.

The chains behind the UniProt entries cited, without tags or fusion partners. Where a name states a change or a piece, a line headed by the entry shows the natural chain unless it says otherwise. Residues count along the entry.
UniProt Q9UM54: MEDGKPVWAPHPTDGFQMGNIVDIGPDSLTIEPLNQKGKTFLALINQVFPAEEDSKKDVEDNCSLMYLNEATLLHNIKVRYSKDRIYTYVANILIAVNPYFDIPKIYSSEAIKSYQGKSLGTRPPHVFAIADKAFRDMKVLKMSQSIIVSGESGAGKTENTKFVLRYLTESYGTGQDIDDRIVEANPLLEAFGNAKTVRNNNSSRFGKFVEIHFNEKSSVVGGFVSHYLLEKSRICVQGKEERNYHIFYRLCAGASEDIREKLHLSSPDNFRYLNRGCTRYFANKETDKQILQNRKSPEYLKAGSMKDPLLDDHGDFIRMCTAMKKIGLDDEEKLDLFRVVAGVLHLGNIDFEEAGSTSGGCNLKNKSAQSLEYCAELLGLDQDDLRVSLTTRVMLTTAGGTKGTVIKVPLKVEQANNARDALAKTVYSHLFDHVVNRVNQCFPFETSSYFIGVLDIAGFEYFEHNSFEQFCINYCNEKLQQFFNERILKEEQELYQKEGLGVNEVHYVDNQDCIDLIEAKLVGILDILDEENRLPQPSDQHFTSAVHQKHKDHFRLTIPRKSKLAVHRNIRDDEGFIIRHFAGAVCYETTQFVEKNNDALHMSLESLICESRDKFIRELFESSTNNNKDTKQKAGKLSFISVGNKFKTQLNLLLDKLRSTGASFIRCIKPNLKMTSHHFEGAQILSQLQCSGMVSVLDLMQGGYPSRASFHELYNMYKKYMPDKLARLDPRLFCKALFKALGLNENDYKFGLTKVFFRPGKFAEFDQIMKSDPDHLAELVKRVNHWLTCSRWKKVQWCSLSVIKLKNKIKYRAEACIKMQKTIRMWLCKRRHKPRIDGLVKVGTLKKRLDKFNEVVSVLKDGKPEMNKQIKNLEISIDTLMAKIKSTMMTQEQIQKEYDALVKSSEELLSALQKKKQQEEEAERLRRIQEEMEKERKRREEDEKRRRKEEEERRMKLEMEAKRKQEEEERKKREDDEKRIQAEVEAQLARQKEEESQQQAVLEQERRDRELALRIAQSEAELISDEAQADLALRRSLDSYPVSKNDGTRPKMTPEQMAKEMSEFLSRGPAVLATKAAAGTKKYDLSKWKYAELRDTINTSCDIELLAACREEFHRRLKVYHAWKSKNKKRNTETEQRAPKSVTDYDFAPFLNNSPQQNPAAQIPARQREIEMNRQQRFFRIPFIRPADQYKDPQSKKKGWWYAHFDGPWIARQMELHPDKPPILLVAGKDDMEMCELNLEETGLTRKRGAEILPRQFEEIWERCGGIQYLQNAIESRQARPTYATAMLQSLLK
eGFP-myosin VI-ΔMotor (1-729): residues 730-1294 of Q9UM54
UniProt P46937: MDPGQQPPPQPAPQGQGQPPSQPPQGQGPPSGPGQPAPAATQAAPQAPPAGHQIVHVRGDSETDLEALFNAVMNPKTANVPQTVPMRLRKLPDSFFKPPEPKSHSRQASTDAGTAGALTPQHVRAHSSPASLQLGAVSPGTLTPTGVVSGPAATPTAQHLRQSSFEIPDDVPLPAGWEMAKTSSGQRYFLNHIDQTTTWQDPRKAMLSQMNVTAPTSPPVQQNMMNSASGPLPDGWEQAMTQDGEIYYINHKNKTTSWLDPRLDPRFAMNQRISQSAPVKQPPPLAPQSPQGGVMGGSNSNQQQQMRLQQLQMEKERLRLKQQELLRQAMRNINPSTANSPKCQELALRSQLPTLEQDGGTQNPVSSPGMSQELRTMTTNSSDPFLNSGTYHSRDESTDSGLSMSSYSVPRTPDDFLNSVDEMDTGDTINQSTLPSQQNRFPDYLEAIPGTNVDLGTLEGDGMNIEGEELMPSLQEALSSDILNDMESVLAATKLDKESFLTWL
UniProt P10275: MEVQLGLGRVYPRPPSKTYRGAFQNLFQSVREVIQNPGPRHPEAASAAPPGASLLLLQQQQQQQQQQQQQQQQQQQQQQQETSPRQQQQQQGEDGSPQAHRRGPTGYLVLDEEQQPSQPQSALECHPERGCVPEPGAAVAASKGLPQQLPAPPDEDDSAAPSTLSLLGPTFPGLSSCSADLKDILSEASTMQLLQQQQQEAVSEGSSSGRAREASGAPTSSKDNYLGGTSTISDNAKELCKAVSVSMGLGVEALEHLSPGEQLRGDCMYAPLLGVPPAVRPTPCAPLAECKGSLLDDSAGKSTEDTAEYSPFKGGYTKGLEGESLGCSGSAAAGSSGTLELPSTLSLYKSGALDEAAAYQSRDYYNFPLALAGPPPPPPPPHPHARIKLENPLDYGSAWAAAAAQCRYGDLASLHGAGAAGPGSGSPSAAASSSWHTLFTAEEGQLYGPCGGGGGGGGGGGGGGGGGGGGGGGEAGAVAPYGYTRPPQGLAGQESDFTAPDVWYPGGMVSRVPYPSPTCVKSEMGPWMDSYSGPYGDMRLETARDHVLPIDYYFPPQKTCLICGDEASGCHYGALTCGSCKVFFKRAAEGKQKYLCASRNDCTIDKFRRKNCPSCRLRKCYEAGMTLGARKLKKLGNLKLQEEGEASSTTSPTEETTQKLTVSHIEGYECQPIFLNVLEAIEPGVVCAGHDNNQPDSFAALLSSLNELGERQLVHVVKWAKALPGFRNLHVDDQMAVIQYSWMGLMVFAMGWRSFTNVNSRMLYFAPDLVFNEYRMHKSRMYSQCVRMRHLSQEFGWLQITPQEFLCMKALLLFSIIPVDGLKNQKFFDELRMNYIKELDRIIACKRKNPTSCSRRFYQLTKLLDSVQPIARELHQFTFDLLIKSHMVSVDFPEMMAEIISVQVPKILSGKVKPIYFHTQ

Assay [1] has as its target myosin VI, endogenous in LNCaP cells (human (endogenous in LNCaP)) (UniProt Q9UM54). In words: proximity ligation; Duolink PLA on endogenous proteins in LNCaP cells, pre-extracted with CSK buffer and fixed; EtOH, 10 nM DHT 24 h, DHT + TIP 1 h or DHT + siMyo6; nuclear PLA foci counted.
Assay [2] concerns the target eGFP-myosin VI (full-length), expressed in HeLa cells (UniProt Q9UM54). In words: co-IP; GFP-Trap immunoprecipitation from lysates of HeLa cells co-expressing BFP-AR with eGFP-myosin VI, eGFP-myosin VI-ΔMotor (1-729) or eGFP alone; EtOH or DHT; Western blot for AR and GFP. Background: A western blot detects proteins with antibodies after separation by electrophoresis.
Assay [3] concerns the target eGFP-myosin VI-ΔMotor (1-729) (UniProt Q9UM54). The description is as above.

These are yes or no findings as the source states them, for the method shown. Binding seen in cells or lysates may run through a third protein. Some binding calls cover weakened binding; strength is not graded here.

On to “Yes-associated protein (YAP) (from UniProt P46937 1-504)”, for which the binding entry in assay [1] is “no binding”.
With “blue fluorescent protein (BFP)-AR (from UniProt P10275 1-920) (receptor)”, the values for the binding result in assay [2] and in assay [3] were “binds” and “no binding”, respectively.

B1: Disabled-2 (Dab2) (protein, UniProt P98082 1-770)
chain: MSNEVETSATNGQPDQQAAPKAPSKKEKKKGPEKTDEYLLARFKGDGVKYKAKLIGIDDVPDARGDKMSQDSMMKLKGMAAAGRSQGQHKQRIWVNISLSGIKIIDEKTGVIEHEHPVNKISFIARDVTDNRAFGYVCGGEGQHQFFAIKTGQQAEPLVVDLKDLFQVIYNVKKKEEEKKKIEEASKAVENGSEALMILDDQTNKLKSGVDQMDLFGDMSTPPDLNSPTESKDILLVDLNSEIDTNQNSLRENPFLTNGITSCSLPRPTPQASFLPENAFSANLNFFPTPNPDPFRDDPFTQPDQSTPSSFDSLKSPDQKKENSSSSSTPLSNGPLNGDVDYFGQQFDQISNRTGKQEAQAGPWPFSSSQTQPAVRTQNGVSEREQNGFSVKSSPNPFVGSPPKGLSIQNGVKQDLESSVQSSPHDSIAIIPPPQSTKPGRGRRTAKSSANDLLASDIFAPPVSEPSGQASPTGQPTALQPNPLDLFKTSAPAPVGPLVGLGGVTVTLPQAGPWNTASLVFNQSPSMAPGAMMGGQPSGFSQPVIFGTSPAVSGWNQPSPFAASTPPPVPVVWGPSASVAPNAWSTTSPLGNPFQSNIFPAPAVSTQPPSMHSSLLVTPPQPPPRAGPPKDISSDAFTALDPLGDKEIKDVKEMFKDFQLRQPPAVPARKGEQTSSGTLSAFASYFNSKVGIPQENADHDDFDANQLLNKINEPPKPAPRQVSLPVTKSTDNAFENPFFKDSFGSSQASVASSQPVSSEMYRDPFGNPFA
As for B1, the binding entry in assay [1] was “binds”.

B2: disheveled-associated activator of morphogenesis 2 (DAAM2), endogenous in LNCaP cells (protein, UniProt Q86T65 1-1068)
chain: MAPRKRSHHGLGFLCCFGGSDIPEINLRDNHPLQFMEFSSPIPNAEELNIRFAELVDELDLTDKNREAMFALPPEKKWQIYCSKKKEQEDPNKLATSWPDYYIDRINSMAAMQSLYAFDEEETEMRNQVVEDLKTALRTQPMRFVTRFIELEGLTCLLNFLRSMDHATCESRIHTSLIGCIKALMNNSQGRAHVLAQPEAISTIAQSLRTENSKTKVAVLEILGAVCLVPGGHKKVLQAMLHYQVYAAERTRFQTLLNELDRSLGRYRDEVNLKTAIMSFINAVLNAGAGEDNLEFRLHLRYEFLMLGIQPVIDKLRQHENAILDKHLDFFEMVRNEDDLELARRFDMVHIDTKSASQMFELIHKKLKYTEAYPCLLSVLHHCLQMPYKRNGGYFQQWQLLDRILQQIVLQDERGVDPDLAPLENFNVKNIVNMLINENEVKQWRDQAEKFRKEHMELVSRLERKERECETKTLEKEEMMRTLNKMKDKLARESQELRQARGQVAELVAQLSELSTGPVSSPPPPGGPLTLSSSMTTNDLPPPPPPLPFACCPPPPPPPLPPGGPPTPPGAPPCLGMGLPLPQDPYPSSDVPLRKKRVPQPSHPLKSFNWVKLNEERVPGTVWNEIDDMQVFRILDLEDFEKMFSAYQRHQKELGSTEDIYLASRKVKELSVIDGRRAQNCIILLSKLKLSNEEIRQAILKMDEQEDLAKDMLEQLLKFIPEKSDIDLLEEHKHEIERMARADRFLYEMSRIDHYQQRLQALFFKKKFQERLAEAKPKVEAILLASRELVRSKRLRQMLEVILAIGNFMNKGQRGGAYGFRVASLNKIADTKSSIDRNISLLHYLIMILEKHFPDILNMPSELQHLPEAAKVNLAELEKEVGNLRRGLRAVEVELEYQRRQVREPSDKFVPVMSDFITVSSFSFSELEDQLNEARDKFAKALMHFGEHDSKMQPDEFFGIFDTFLQAFSEARQDLEAMRRRKEEEERRARMEAMLKEQRERERWQRQRKVLAAGSSLEEGGEFDDLVSALRSGEVFDKDLCKLKRSRKRSGSQALEVTRERAINRLNY
With B2, the binding entry in assay [1] is “binds”.
